Laboratory results from paper doi:10.1101/2021.04.25.441346 (bioRxiv, 2021).
No constants are given. Whether binding was seen depends on the method and setting. In cells and extracts the contact can be indirect. Some binding calls cover weakened binding; strength is not graded here. Sequences can lack the tags named with a protein. Each block holds one binder with its values, some of them ahead of it.

Protein sequences, listed by entry. Tags and fused reporters are not part of them.
UniProt Q38825, whole entry: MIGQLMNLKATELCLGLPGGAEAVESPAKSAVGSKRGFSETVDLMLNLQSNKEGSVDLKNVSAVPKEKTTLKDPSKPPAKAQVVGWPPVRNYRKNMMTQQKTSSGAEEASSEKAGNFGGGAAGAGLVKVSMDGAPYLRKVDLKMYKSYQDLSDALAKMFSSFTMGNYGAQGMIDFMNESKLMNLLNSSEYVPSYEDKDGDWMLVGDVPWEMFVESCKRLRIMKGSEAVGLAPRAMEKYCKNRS

Experiments:
[1] = target: T1, ARF7-HA (AUXIN RESPONSE FACTOR 7) (Arabidopsis thaliana) (UniProt P93022); assay: co-IP
T1 sequence: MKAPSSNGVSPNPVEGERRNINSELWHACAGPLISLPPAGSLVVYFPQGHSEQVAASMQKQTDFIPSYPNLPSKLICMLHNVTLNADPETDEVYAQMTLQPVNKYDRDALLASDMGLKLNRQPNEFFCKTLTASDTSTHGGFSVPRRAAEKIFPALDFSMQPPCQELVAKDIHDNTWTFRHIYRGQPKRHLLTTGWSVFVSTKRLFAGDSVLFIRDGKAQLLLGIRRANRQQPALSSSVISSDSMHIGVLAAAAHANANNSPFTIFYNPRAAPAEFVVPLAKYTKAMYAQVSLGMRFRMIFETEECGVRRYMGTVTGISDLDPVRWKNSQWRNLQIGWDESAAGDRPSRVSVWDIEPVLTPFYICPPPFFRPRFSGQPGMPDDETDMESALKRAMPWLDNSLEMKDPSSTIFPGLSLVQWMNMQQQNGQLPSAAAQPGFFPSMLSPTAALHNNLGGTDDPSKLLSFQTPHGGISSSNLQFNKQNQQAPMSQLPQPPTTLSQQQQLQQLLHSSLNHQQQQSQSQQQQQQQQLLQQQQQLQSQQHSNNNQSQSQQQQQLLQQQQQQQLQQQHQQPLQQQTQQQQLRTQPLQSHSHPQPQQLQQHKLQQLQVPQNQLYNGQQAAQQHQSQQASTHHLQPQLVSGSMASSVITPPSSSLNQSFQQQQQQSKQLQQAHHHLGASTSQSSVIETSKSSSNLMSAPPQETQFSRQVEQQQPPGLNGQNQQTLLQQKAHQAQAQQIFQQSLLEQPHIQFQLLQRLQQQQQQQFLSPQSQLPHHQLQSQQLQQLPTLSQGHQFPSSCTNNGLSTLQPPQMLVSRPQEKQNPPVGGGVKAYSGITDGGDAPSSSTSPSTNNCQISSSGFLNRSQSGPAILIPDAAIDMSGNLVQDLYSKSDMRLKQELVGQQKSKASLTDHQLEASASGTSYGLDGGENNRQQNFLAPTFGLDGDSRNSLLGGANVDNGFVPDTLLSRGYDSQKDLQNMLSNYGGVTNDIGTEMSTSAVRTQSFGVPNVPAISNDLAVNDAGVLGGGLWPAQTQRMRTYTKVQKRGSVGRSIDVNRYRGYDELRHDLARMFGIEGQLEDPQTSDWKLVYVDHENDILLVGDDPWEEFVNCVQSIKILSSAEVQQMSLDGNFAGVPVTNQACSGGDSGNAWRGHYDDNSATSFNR

[2] = target: T2, YFP-ARF19 (AUXIN RESPONSE FACTOR 19) (Arabidopsis thaliana) (UniProt Q8RYC8); assay: co-IP
T2 sequence: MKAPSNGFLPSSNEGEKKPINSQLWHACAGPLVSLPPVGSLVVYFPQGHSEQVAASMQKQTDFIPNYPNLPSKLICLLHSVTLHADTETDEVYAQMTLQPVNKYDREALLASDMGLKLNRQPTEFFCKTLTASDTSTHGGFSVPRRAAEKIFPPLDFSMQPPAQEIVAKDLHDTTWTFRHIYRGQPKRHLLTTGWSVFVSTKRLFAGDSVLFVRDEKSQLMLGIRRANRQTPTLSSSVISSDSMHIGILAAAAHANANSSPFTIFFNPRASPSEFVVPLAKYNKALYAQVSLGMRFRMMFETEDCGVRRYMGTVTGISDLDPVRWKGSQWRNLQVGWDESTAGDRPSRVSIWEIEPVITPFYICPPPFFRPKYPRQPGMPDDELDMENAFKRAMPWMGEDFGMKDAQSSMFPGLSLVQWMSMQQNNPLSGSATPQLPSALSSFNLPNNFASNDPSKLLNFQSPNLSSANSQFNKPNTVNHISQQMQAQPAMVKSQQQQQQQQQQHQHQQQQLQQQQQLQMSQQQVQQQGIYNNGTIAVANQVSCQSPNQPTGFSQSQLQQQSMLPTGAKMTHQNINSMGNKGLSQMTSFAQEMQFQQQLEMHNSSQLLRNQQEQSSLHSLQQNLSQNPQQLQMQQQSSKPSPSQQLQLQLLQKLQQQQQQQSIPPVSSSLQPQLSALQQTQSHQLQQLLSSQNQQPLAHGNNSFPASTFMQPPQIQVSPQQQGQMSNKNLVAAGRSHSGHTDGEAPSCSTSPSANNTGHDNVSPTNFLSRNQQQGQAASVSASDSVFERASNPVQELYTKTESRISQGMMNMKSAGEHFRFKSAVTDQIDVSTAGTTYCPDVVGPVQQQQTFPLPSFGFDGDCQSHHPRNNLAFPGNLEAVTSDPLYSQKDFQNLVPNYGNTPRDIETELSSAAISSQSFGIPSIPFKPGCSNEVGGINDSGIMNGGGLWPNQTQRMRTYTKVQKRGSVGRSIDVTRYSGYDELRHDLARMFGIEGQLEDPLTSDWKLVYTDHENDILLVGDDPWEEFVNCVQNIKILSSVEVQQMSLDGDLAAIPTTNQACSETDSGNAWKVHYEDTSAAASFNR

[3] = target: T3, GST-AFF1 (AUXIN RESPONSE FACTOR F-BOX1, At3g49150) (Arabidopsis thaliana) (UniProt Q9M3B7); assay: pull-down
T3 sequence: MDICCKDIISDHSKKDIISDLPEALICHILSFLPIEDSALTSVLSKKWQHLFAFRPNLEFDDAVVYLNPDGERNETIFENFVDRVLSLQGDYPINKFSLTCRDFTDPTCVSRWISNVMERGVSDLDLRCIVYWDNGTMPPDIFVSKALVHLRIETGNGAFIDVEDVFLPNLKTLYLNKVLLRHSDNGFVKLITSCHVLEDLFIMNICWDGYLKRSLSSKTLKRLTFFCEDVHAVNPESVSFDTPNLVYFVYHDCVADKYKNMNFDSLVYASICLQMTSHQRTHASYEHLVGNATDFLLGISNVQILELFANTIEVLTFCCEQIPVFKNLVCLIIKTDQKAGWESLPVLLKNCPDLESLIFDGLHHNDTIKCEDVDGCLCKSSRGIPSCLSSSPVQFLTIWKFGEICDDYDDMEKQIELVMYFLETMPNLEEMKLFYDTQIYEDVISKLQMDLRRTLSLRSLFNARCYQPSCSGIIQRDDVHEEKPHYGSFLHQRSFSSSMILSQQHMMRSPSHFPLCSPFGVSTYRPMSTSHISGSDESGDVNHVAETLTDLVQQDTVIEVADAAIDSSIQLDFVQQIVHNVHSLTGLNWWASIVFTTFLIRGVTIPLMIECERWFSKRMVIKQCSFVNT

[4] = target: cEYFP-IAA7 (Arabidopsis thaliana) (UniProt Q38825); assay: split reporter

- binding [1]: binds
- binding [2]: binds
B1: GST-AFF1 (AUXIN RESPONSE FACTOR F-BOX1, At3g49150) (protein, UniProt Q9M3B7 1-630)
chain: T3 sequence

- binding [3]: binds
B2: YFP-ARF19 (AUXIN RESPONSE FACTOR 19) (protein, UniProt Q8RYC8 1-1086)
chain: T2 sequence

- binding [4]: binds
B3: ARF19 BiFC fusion (nEYFP-ARF19 and cEYFP-ARF19) (protein, UniProt Q8RYC8 1-1086)
chain: T2 sequence
